These are yes or no findings as the source states them, for the method shown. In cells and extracts the contact can be indirect. Some binding calls cover weakened binding; strength is not graded here. For some assays here: Sequences can lack the tags named with a protein.
Assays:
[1] = target: T1, CCR1 (1–327 aa) with Rluc8 at the C terminal via a 6*His linker (human) (UniProt P32246); assay: FRET or BRET; BRET; CCR1 (1–327)-Rluc8 and Venus-β-arrestin2 in HEK293T cells; stimulated with CCL15 truncations, 10^-13 to 10^-6 M, 40 min
T1 sequence: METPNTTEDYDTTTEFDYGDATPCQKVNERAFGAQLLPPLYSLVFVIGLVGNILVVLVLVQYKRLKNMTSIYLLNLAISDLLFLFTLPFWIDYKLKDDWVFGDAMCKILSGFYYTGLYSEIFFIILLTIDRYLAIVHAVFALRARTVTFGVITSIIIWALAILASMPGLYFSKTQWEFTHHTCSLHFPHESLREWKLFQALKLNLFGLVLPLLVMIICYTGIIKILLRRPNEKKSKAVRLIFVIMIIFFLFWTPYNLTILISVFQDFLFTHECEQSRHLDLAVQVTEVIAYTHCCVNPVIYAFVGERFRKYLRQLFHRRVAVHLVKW

[2] = target: T2, CCR1 (1–327 aa) with LgBiT at the C terminal (human) (UniProt P32246); assay: split reporter; CCR1 (1–327)-LgBiT and SmBiT-β-arrestin2 in HEK293T cells; stimulated with CCL15 truncations, 10^-13 to 10^-6 M; luminescence with coelenterazine h
T2 sequence: T1 sequence

β-arrestin2 with Venus at the N terminal (from UniProt P32121 1-409)
binding [1]: binds

β-arrestin2 with SmBiT fused at the N terminus (from UniProt P32121 1-409)
binding [2]: binds

— paper PMC8885419, “Identification and mechanism of G protein-biased ligands for chemokine receptor CCR1” (Nature Chemical Biology, 2021)
